Measured values taken from PubChem BioAssay AID1794844 (National Center for Advancing Translational Sciences (NCATS), 2023).
The whole screen tested about 2,800 compounds, of which fewer than 10 were called active. Another 7% or so got no clear call; they are omitted. The call rests on the fitted dose curve; in most records, active means well fitted inhibition curve with a large enough effect; inconclusive means small, poorly fitted or top-dose-only effect; inactive means no such curve, though single readings can be large or run the other way. This is one part of the list.

Protein sequences, listed by entry. Tags and fused reporters are not part of them. Lines headed by an entry give the natural chain unless they say otherwise; changes in a name come on top.
UniProt C7C422: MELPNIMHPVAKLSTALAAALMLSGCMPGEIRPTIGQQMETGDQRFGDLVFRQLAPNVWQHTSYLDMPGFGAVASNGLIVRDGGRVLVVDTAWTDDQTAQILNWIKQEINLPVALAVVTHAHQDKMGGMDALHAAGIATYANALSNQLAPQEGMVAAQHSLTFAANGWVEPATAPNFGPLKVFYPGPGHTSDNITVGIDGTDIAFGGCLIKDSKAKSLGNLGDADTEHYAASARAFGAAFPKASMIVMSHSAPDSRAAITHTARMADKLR

target: Metallo-beta-lactamase type 2 (Klebsiella pneumoniae) (UniProt C7C422); assay: qHTS to identify inhibitors of the New Delhi Metallo-beta-lactamase (NDM): Nitrocefin screen against the machine-based learning selections.; further: % of control where 0% means no effect; settings: NDM-1 enzyme, nitrocefin hydrolysis, absorbance 485 nm; activity, negative = inhibition: at the top concentration
In short: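 NDM-1 (2 nM final) in 50 mM HEPES pH 7.0, 1 uM Zn2SO4, 0.01% Tween20 was preincubated with compounds for >30 min. Nitrocefin (16.7 uM final) was read at 485 nm after 15 min, and meropenem (50 uM final) at 300 nm after 30 min.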

activity, negative = inhibition, inactive:
O=C1C[C@@H]2CCN(C(=O)Nc3ccccc3)C[C@@H]2CCN1CCc1cnc[nH]1 14.6% [at 57.5 µM], O=C1[C@@H]2C[C@@H](O)CN2C2(CN(C3Cc4ccccc4C3)C2)C(=O)N1Cc1ccccc1F -6.47%, Cc1nccc(-c2ccccc2)c1C(=O)N[C@H]1C[C@@H]2OCC[C@H]12 1.16%, C[C@@H](NS(=O)(=O)c1ccccc1)c1onc(-c2cccnc2)c1C(=O)O -7.4% [at 57.5 µM], O=C(NC[C@H]1OC[C@@H](NC2CCC(F)(F)CC2)[C@@H]1O)C1CC1 -3.47% [at 57.5 µM], COc1cccc(CN2CC3(C2)C(=O)N(Cc2ccccc2F)C(=O)[C@@H]2C[C@@H](O)CN23)c1 1.92%, COc1ccc(C2(C(=O)N3CCCC(Cc4nc(C5CCOCC5)no4)C3)CC2)cc1 (stereo not given) 0.154%, CC(C)(C)C(=O)N1C[C@H]2OC(=O)N(CCc3cccc(Cl)c3)[C@H]2C1 8.93%, Cc1ccc2c(c1)nc1n2[C@@H](CNCc2ccc(S(C)(=O)=O)cc2)COC1 -0.905% [at 57.5 µM], CC(Cc1ccc2c(c1)OCO2)CN1CCC(CO)(CN2CCCC2)CC1 (stereo not given) -4.78%, Cn1ncc(N2CCC(NC(=O)c3ccsc3)CC2)cc1=O -4.35%, O=C(CC[C@@H]1CNC(=O)[C@@H]2C[C@H](NCc3ccc(F)cc3)CN12)NCc1ccc(F)cc1 2%, COc1ccc(-c2ccnc3nc(CCc4ccccc4)nn23)c(F)c1 1.48%, OCc1ccnc(-c2ccc(-c3ccn[nH]3)cc2)c1 -20.6%, COCCNC(=O)C[C@@H]1C[C@H]2O[C@H](CNC(=O)N3CCOCC3)[C@@H](O)[C@H]2O1 3.61% [at 57.5 µM], C[C@]1(CO)[C@H]2Cc3sc(NC(=O)c4ccc(F)cc4)nc3[C@@H](CC(=O)Nc3ccccc3)[C@]2(C)CC[C@H]1O -3.79%, CS(=O)(=O)N1CCCC(c2nc(-c3ccccc3)no2)CCNC(=O)CC1 (stereo not given) -0.831%, NC(=O)c1ccc(Nc2cnc3ccc(-c4ccccc4)nn23)cc1 2.31% [at 57.5 µM], O=C(NCc1cccnc1)[C@@H]1C[C@@H](c2ccc(F)cc2)N(Cc2ccccc2)C1 0.701% [at 57.5 µM], CCn1ccc2cc(C(=O)N3CCC(=O)N(CC4CC4)C(C(C)C)C3)ccc21 (stereo not given) -3.93%, Fc1ccc(-c2ccc3ncc(Nc4ccccn4)n3n2)cc1 10.1% [at 57.5 µM], CN1CCC(OCCCn2cnc3cn(C)nc3c2=O)CC1 -2.98%, Cc1c(CN2C[C@@H](COc3ccccc3)[C@H](C(N)=O)C2)cnn1C 2.24%, O=C(NCc1cccnc1)c1ccc2oc(-c3ccc(C(F)(F)F)cc3)nc2c1 1.02%, CC1(COc2ccccc2)COc2ccc(C(=O)NCCc3ccccn3)cc2N1 (stereo not given) -11.2% [at 57.5 µM], CC(=O)Nc1ccc(S(=O)(=O)N[C@H]2CO[C@H]3[C@@H]2OC[C@@H]3n2nnnc2Oc2ccc(-n3ccnc3)cc2)cc1 9.9%, Cc1ccc(NC(=O)N2CCCC(Cn3c(C4CC4)nc4cccnc43)C2)c(C)c1 (stereo not given) -5.5%, CC(=O)NC1(C)CCCN(Cc2cc(-c3ccccc3)cs2)C1 (stereo not given) -4.9% [at 57.5 µM], NCCn1cc(C(=O)NCCS(=O)(=O)N2CCCC2)nn1 3.3%, O=C(N[C@H](Cc1ccncc1)C1CC(O)C1)c1ccc(CO)o1 (stereo not given in full) 6.76%, CCNC(=O)N1CC[C@@H](CC(=O)O)[C@@H](CC2=NCCc3ccc(C)cc32)C1 -5.95% [at 57.5 µM], Cc1cccc(-n2cc(CN3CCN(c4cc(N)nc(N)n4)CC3)cn2)c1 7.37%, O=C(NC1C[C@H]2CC[C@@H](C1)N2C(=O)c1ccn[nH]1)c1ccncc1 (stereo not given in full) -1.67%, CC1=C[C@@H](CO)[C@H](C(C)C)C[C@H]1Cc1nnc(Cc2c[nH]c3ccccc23)o1 -10.7% [at 57.5 µM], CC(C)c1cc(CN(C)Cc2cn[nH]c2-c2ccc(F)cc2)no1 -9.64%, CCc1nc2c(c(-c3ccc(Cl)cc3)n1)CN([S+](=O)([O-])c1ccc(C)cc1)CC2 -1.15%, O=C([C@@H]1C[C@H](F)CN1C(=O)NC1CCCC1)N1CCc2ccccc2C1 -3.69%, COC[C@H]1C[C@@H](NC(=O)C2CCOCC2)[C@H](O)[C@@H]1O 26.9% [at 76.7 µM], O=C(NC1CCC(n2cnnc2)CC1)c1ccc(Cn2cnnn2)cc1 (stereo not given) 5.73%, O=C(N[C@H]1CCN2C(=O)c3cc(-c4ccc(F)cc4F)ccc3NC(=O)[C@H]12)c1cccs1 1.2%, COc1ccc2nc([C@H]3CCN(C4CCN(C)CC4)C3)[nH]c2c1 10% [at 57.5 µM], c1cncc(Nc2cc3c(cn2)CN(Cc2cccs2)CCN3)c1 10.4% [at 57.5 µM], CC(=O)c1ccc(NC(=O)N[C@H]2CCN3C(=O)[C@@H](Cc4ccccc4)NC(=O)[C@H]23)cc1 -8.78% [at 57.5 µM], COc1ccc(CN2CCC[C@H]2c2nc(-c3cncnc3N)no2)c(O)c1 -3.68% [at 57.5 µM], CN(C)[C@H]1CCN(C(=O)Cc2cn(C)c3ccccc23)C[C@H]1CCC(=O)O -6.21%, Cc1ccc(C(=O)N2CC[C@@H]3CN(S(C)(=O)=O)[C@@H]3C2)c(=O)[nH]1 3.71%, C[S+](=O)([O-])c1cccc(NC(=O)Cc2c[nH]c3ncc(-c4ccccc4)cc23)c1 -6.2% [at 57.5 µM], COC(=O)c1ccc(N2C[C@H]3OC(=O)N(CCc4ccc(OC)cc4)[C@H]3C2)nc1 0.339%, O[C@@H]1C[C@@H](c2nc(Cc3ccc(F)cc3Cl)no2)N(Cc2ccc(OC(F)(F)F)cc2)C1 -5.94%, CC(C)C(=O)NCCC1CCN(C(=O)Nc2cc(F)ccc2F)CC1 1.6%, CC(C)CN(Cc1cccnc1)C1CN(C(=O)NCc2ccc(F)cc2)C1 3.42%, O=C(O)CCc1cc2n(n1)CCCN(C(=O)c1ccc3n[nH]nc3c1)C2 -10.3%, O=C(O)CCc1nc(C2CCOCC2)n[nH]1 -0.0925%, CCN(CC)C(=O)C[C@@H]1CCNC[C@@H]1Cc1cc(-c2ccc(C(C)(C)C)cc2)on1 3.9% [at 57.5 µM], O[C@H]1CC[C@@H](Cc2cc(COc3ccccc3)on2)O[C@@H]1CNC1CCNCC1 30.5%, O=C(Nc1ccccc1)Nc1ccc([C@@H](O)[C@H]2COCC(=O)N2Cc2cccnc2)cc1 -3.73% [at 57.5 µM], COc1ccc2c(c1)OCC(CNC(=O)c1noc3c1CCCC3)C2 (stereo not given) -14.1%, COc1cc(SC)ccc1C(=O)N[C@H]1CCN2C(=O)N(c3ccc(OC(F)(F)F)cc3)C(=O)[C@@H]2C1 -1.29%, CC[C@H]1CN(C(=O)C2CC2)CC[C@H]1CC(=O)N(C)CCC#N 8.05% [at 57.5 µM], O=C(Cn1cnnn1)N1CCc2ncnc(NC[C@H]3CCCO3)c2CC1 4.04%
